{"source": "patent US7851618", "about": "(dated 2010)", "experiment": "general procedure: Fmoc solid-phase peptide synthesis; HMPA-PEGA resin; MSNT, N-methylimidazole (first residue loading)", "settings": "conjugation step", "note": "Ends that are not written are not given here.", "data": [{"sequence": "REEQYCSTYRV", "values": [{"measurement": "conjugation yield", "result": 64, "unit": "%"}]}]}
